# Measurements reported in PubChem BioAssay AID720505 (Drosophila RNAi Screening Center, 2013)
# Aim: 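Fly regulators or components of the CRAC channel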 (primary screen)
# Cells: Drosophila S2R+ cells
# Knock-down reagent: long dsRNA against Drosophila genes
# Conditions: thapsigargin (2 µM) in calcium-free buffer to empty internal stores, then 2 mM calcium added back
# Read-out: 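Fluo-4 signal in 384-well plates read on a FLIPR after thapsigargin (2 µM, calcium-free) store depletion and 2 mM calcium add-back; unnormalised mean endpoint per well; screen run twice, selected wells retested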
# Scale: calcium signal and retest calcium signal: higher = more calcium entry after store depletion
# Hit rule: 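Knock-downs counted as hits when calcium entry dropped relative to STIM1 positive and Rho1 negative controls present on each plate; roughly 1500 genes called, with reductions of differing size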
# Calls: active = called as lowering calcium entry; inactive = not called
# In all, the deposit lists about 20,000 reagents; below is a random part of those that have a named target and a result. Over the whole deposit, about 2,100 (10%) were called active. 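Raw plate signals without normalisation; calls rest on control-based scores that were not deposited; replicate 2 separates called from uncalled poorly.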 The numbers tell different reagents against one gene apart. Not stated in the record: the amount of reagent, the time to read-out.
target,dsRNA no.,"calcium signal, replicate 1","calcium signal, replicate 2","retest calcium signal, replicate 1","retest calcium signal, replicate 2",Outcome
Gip (GIP-like),1,153,179,,,inactive
CG16711,1,100,77.8,,,inactive
Sema2a (Semaphorin 2a),1,171,93.1,,,inactive
CG15721,1,128,108,,,inactive
CG14757,1,127,142,,,inactive
"AGBE (1,4-Alpha-Glucan Branching Enzyme)",1,137,105,,,inactive
CG14062,1,147,187,,,inactive
Sec23 (Secretory 23),1,133,101,123,143,inactive
btv (beethoven),1,164,108,,,inactive
btv (beethoven),2,115,135,,,inactive
fz (frizzled),1,81.2,196,,,inactive
CG3277,1,108,100,,,inactive
RhoGAP19D (Rho GTPase activating protein at 19D),1,137,143,,,inactive
RhoGAP19D (Rho GTPase activating protein at 19D),2,140,120,,,inactive
Mco4 (Multicopper oxidase 4),1,100,110,,,inactive
mRpS25 (mitochondrial ribosomal protein S25),1,60.2,146,,,active
CG33111,1,180,129,,,inactive
CG33111,2,172,149,,,inactive
CG16865,1,118,159,,,inactive
b (black),1,147,119,,,inactive
CG14764,1,101,92,,,inactive
CG14764,2,137,123,,,inactive
CG14764,3,83.1,155,,,inactive
Sidpn (similar to Deadpan),1,83.6,148,,,inactive
Coa8 (Cytochrome c oxidase assembly factor 8),1,93.4,162,,,inactive
Edg91 (Ecdysone-dependent gene 91),1,129,165,,,inactive
Alp4 (Alkaline phosphatase 4),1,172,123,,,inactive
c-cup (calcutta cup),1,164,143,,,inactive
CG13026,1,106,157,,,inactive
Osi12 (Osiris 12),1,101,79.4,,,inactive
CG30196,1,79.4,149,,,inactive
wat (waterproof),1,138,153,,,inactive
wfs1 (wolfram syndrome 1),1,137,134,,,inactive
PpV (Protein phosphatase V),1,149,104,,,inactive
PpV (Protein phosphatase V),2,81.1,115,,,inactive

As entered above:
Under “calcium signal, replicate 2”, Sec23 (Secretory 23) shows 101
Mco4 (Multicopper oxidase 4), calcium signal, replicate 1 → 100
